According to the supplement of paper PMC8920030:
This continues a long series; more values of the same kind are listed elsewhere. Where a SMILES comes first, the peptide text is derived from it. Bridges are numbered along the chain shown (N, C = ends). [ ]: non-standard residue; d: D form. The star is where a group is joined. Heptanoyl(5-Me) = CCC(C)CCCC(=O)*; Dab = NCC[C@H](N)C(=O)O

Assays:
Conditions in all cases: growth mode: biofilm, 24 h; exposure time: 24 h
colistin [1] = compound: T1, CCC(C)CCCC(=O)N[C@@H](CCN)C(=O)N[C@H](C(=O)N[C@@H](CCN)C(=O)N[C@H]1CCNC(=O)[C@H]([C@@H](C)O)NC(=O)[C@H](CCN)NC(=O)[C@H](CCN)NC(=O)[C@H](CC(C)C)NC(=O)[C@@H](CC(C)C)NC(=O)[C@H](CCN)NC1=O)[C@@H](C)O [colistin]; assay: minimum concentration of killing, 1-log CFU reduction of biofilm (MCK90); higher = more biofilm tolerance
Procedure: (§1)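 Clinical P. aeruginosa isolates were grown as static biofilms for 24 h at 37 °C in LB in half-area 96-well plates, then exposed for 24 h to colistin at 1, 4, 16, 64, 256 or […]. Surviving CFU were counted by spotting serial dilutions. MCK is the lowest tested concentration giving the stated log reduction in CFU versus an untreated control; '>1024' means the reduction was not reached at the top dose, and 1 is the lowest dose tested (≤1).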

tobramycin [2] = compound: T2, NC[C@H]1O[C@H](O[C@H]2[C@H](O)[C@@H](O[C@H]3O[C@H](CO)[C@@H](O)[C@H](N)[C@H]3O)[C@H](N)C[C@@H]2N)[C@H](N)C[C@@H]1O [tobramycin]; assay: minimum concentration of killing, 2-log CFU reduction of biofilm (MCK99); higher = more biofilm tolerance
Procedure: as §1, with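 “tobramycin” for “colistin”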

colistin [3] = compound: T1, colistin; assay: minimum concentration eradicating biofilm below detection limit (MCK-E); higher = more biofilm tolerance
Procedure: as §1

colistin [4] = compound: T1, colistin; assay: minimum concentration of killing, 2-log CFU reduction of biofilm (MCK99); higher = more biofilm tolerance
Procedure: as §1

colistin [5] = compound: T1, colistin; assay: minimum concentration of killing, 4-log CFU reduction of biofilm (MCK99.99); higher = more biofilm tolerance
Procedure: as §1

tobramycin [6] = compound: T2, tobramycin; assay: as above
Procedure: as §1, with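 “tobramycin” for “colistin”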

tobramycin [7] = compound: T2, tobramycin; assay: minimum concentration of killing, 1-log CFU reduction of biofilm (MCK90); higher = more biofilm tolerance
Procedure: as §1, with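 “tobramycin” for “colistin”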

tobramycin [8] = compound: T2, tobramycin; assay: minimum concentration eradicating biofilm below detection limit (MCK-E); higher = more biofilm tolerance
Procedure: as §1, with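 “tobramycin” for “colistin”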

Test System | minimum concentration of killing (colistin [1]) [µg/mL] | minimum concentration of killing (tobramycin [2]) [µg/mL] | minimum concentration eradicating biofilm below detection limit (colistin [3]) [µg/mL] | minimum concentration of killing (colistin [4]) [µg/mL] | minimum concentration of killing (colistin [5]) [µg/mL] | minimum concentration of killing (tobramycin [6]) [µg/mL] | minimum concentration of killing (tobramycin [7]) [µg/mL] | minimum concentration eradicating biofilm below detection limit (tobramycin [8]) [µg/mL]
Pseudomonas aeruginosa clinical isolate PSAE1934 | 64 | ≤ 1 | 256 | 64 | 256 | 4 | ≤ 1 | 64
Pseudomonas aeruginosa clinical isolate PSAE1975 | 256 | 16 | 1020 | 256 | 256 | 64 | 16 | 64
Pseudomonas aeruginosa clinical isolate PSAE1984 | 64 | 4 | 256 | 64 | 256 | 256 | 4 | 256
Pseudomonas aeruginosa clinical isolate PSAE2125 | 64 | 64 | 256 | 64 | 64 | 1020 | 16 | 1020
Pseudomonas aeruginosa clinical isolate PSAE2126 | 256 | ≤ 1 | 256 | 256 | 256 | 64 | ≤ 1 | 64
Pseudomonas aeruginosa clinical isolate PSAE2325 | 256 | 4 | 256 | 256 | 256 | 4 | 4 | 64
Pseudomonas aeruginosa clinical isolate Psae1656 | 64 | 16 | 256 | 256 | 256 | 64 | 16 | 64
Pseudomonas aeruginosa clinical isolate Vb3320 | 16 | ≤ 1 | 256 | 256 | 256 | 4 | ≤ 1 | 64
Pseudomonas aeruginosa clinical isolate ZG205565 | 64 | 16 | 1020 | 64 | 256 | 16 | ≤ 1 | 64
Pseudomonas aeruginosa clinical isolate ZG205694 | 256 | 256 | 256 | 256 | 256 | 1020 | 64 | 1020
Pseudomonas aeruginosa clinical isolate ZG205710 | 256 | 16 | 256 | 256 | 256 | 256 | 4 | 256
Pseudomonas aeruginosa clinical isolate ZG301975 | 64 | 16 | 256 | 64 | 256 | 64 | ≤ 1 | 256
Pseudomonas aeruginosa clinical isolate ZG302359 | 256 | 64 | 256 | 256 | 256 | 256 | ≤ 1 | 1020
Pseudomonas aeruginosa clinical isolate ZG302367 | 256 | 64 | 256 | 256 | 256 | 256 | 4 | 256
Pseudomonas aeruginosa clinical isolate ZG302368 | 64 | 16 | 256 | 256 | 256 | 64 | 4 | 64
Pseudomonas aeruginosa clinical isolate ZG302370 | 64 | 16 | 1020 | 256 | 256 | 64 | 4 | 64
Pseudomonas aeruginosa clinical isolate ZG302383 | 64 | 4 | 1020 | 256 | 256 | 256 | ≤ 1 | 256
